# Structures can show the parent of a compound that is named as a salt. Some of the results follow. Most entries show no effect beyond the scatter of the controls.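 Reh is a human leukemia cell line; the read-out is the median γH2AX antibody signal in S-phase cells by flow cytometry, with the score counting standard deviations from the median difference of each paired set of plates. Scores above 2.5 were called candidate hits, while scores below -2 mark compounds that lowered the MK1775-induced damage.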
# Test system: Reh
# Assay: Z' of S-phase gammaH2AX difference (drug + MK1775 minus drug alone) (Z-score); higher = stronger synergistic S-phase DNA damage with MK1775
# Conditions: MK1775 concentration 400 nM; first compound 10 µM; 4 h
row,SMILES,Z' of S-phase gammaH2AX difference (Z-score)
1,OC(CN1CCN(c2cccc(Cl)c2)CC1)C(c1ccccc1)c1ccccc1 (configuration not stated) + C=CCn1c(=O)c2cnc(Nc3ccc(N4CCN(C)CC4)cc3)nc2n1-c1cccc(C(C)(C)O)n1 [MK1775],inactive: 0.411
2,"C#CCn1c(=O)c2c(ncn2C)n(C)c1=O [3,7-Dimethyl-I-propargylxanthine] + C=CCn1c(=O)c2cnc(Nc3ccc(N4CCN(C)CC4)cc3)nc2n1-c1cccc(C(C)(C)O)n1 [MK1775]",inactive: 0.94
3,Oc1cccc(-c2nc(N3CCOCC3)c3oc4ncccc4c3n2)c1 + C=CCn1c(=O)c2cnc(Nc3ccc(N4CCN(C)CC4)cc3)nc2n1-c1cccc(C(C)(C)O)n1 [MK1775],inactive: -0.719
4,N#C/C(=C\c1ccc(O)c(O)c1)C(=O)NCc1ccccc1 [Tyrphostin AG 490] + C=CCn1c(=O)c2cnc(Nc3ccc(N4CCN(C)CC4)cc3)nc2n1-c1cccc(C(C)(C)O)n1 [MK1775],inactive: -0.483
5,CCN(CC)CCCCNc1ncc2cc(-c3cc(OC)cc(OC)c3)c(NC(=O)NC(C)(C)C)nc2n1 + C=CCn1c(=O)c2cnc(Nc3ccc(N4CCN(C)CC4)cc3)nc2n1-c1cccc(C(C)(C)O)n1 [MK1775],inactive: -0.382
6,"CN(C)CCC(c1ccc(Br)cc1)c1ccccn1 (single isomer, unassigned; (+)) [(+)-Brompheniramine maleate] + C=CCn1c(=O)c2cnc(Nc3ccc(N4CCN(C)CC4)cc3)nc2n1-c1cccc(C(C)(C)O)n1 [MK1775]",inactive: -0.15
7,CC(C)C[C@H](NC(=O)CNC(=O)c1cc(Cl)ccc1Cl)B1OC(=O)C(CC(=O)O)(CC(=O)O)O1 + C=CCn1c(=O)c2cnc(Nc3ccc(N4CCN(C)CC4)cc3)nc2n1-c1cccc(C(C)(C)O)n1 [MK1775],inactive: -0.753
8,"CC(N)(Cc1ccc(O)c(O)c1)C(=O)O (racemic) [(?)-3-(3,4-dihydroxyphenyl)-2-methyl-DL-alanine] + C=CCn1c(=O)c2cnc(Nc3ccc(N4CCN(C)CC4)cc3)nc2n1-c1cccc(C(C)(C)O)n1 [MK1775]",inactive: -0.417
9,NC(=O)c1cccc(N)c1 [3-aminobenzamide] + C=CCn1c(=O)c2cnc(Nc3ccc(N4CCN(C)CC4)cc3)nc2n1-c1cccc(C(C)(C)O)n1 [MK1775],inactive: -0.244
10,Cc1ccc(-n2nc(C(C)(C)C)cc2NC(=O)Nc2ccc(OCCN3CCOCC3)c3ccccc23)cc1 [BIRB 796 (Doramapimod)] + C=CCn1c(=O)c2cnc(Nc3ccc(N4CCN(C)CC4)cc3)nc2n1-c1cccc(C(C)(C)O)n1 [MK1775],inactive: 0.339
11,CNC(=O)c1ccc(C)c(-n2c(C)cc(OCc3ccc(F)cc3F)c(Br)c2=O)c1 + C=CCn1c(=O)c2cnc(Nc3ccc(N4CCN(C)CC4)cc3)nc2n1-c1cccc(C(C)(C)O)n1 [MK1775],inactive: 0.177
12,CCCN(CCc1ccccc1)C1CCc2c(O)cccc2C1 (configuration not stated) [(?)-PPHT hydrochloride] + C=CCn1c(=O)c2cnc(Nc3ccc(N4CCN(C)CC4)cc3)nc2n1-c1cccc(C(C)(C)O)n1 [MK1775],inactive: -0.136
13,CNC(=N)NCCC[C@H](N)C(=O)O [NG-Monomethyl-L-arginine acetate] + C=CCn1c(=O)c2cnc(Nc3ccc(N4CCN(C)CC4)cc3)nc2n1-c1cccc(C(C)(C)O)n1 [MK1775],inactive: -0.33
14,O=C(O)C1=CCCN(CCON=C(c2ccccc2)c2ccccc2)C1 [NO-711 hydrochloride] + C=CCn1c(=O)c2cnc(Nc3ccc(N4CCN(C)CC4)cc3)nc2n1-c1cccc(C(C)(C)O)n1 [MK1775],inactive: -0.776
15,CC(C)(C)NCC(O)COc1cccc2[nH]c(=O)[nH]c12 (configuration not stated) + C=CCn1c(=O)c2cnc(Nc3ccc(N4CCN(C)CC4)cc3)nc2n1-c1cccc(C(C)(C)O)n1 [MK1775],inactive: -0.184
16,O=C(c1ccccc1)c1ccc2n1CCC2C(=O)O (configuration not stated) [Ketorolac tris salt] + C=CCn1c(=O)c2cnc(Nc3ccc(N4CCN(C)CC4)cc3)nc2n1-c1cccc(C(C)(C)O)n1 [MK1775],inactive: -1.17
17,CNC(=O)[C@H]1O[C@@H](n2cnc3c(NCc4cccc(I)c4)nc(Cl)nc32)[C@H](O)[C@@H]1O [Chloro-IB-MECA] + C=CCn1c(=O)c2cnc(Nc3ccc(N4CCN(C)CC4)cc3)nc2n1-c1cccc(C(C)(C)O)n1 [MK1775],inactive: -0.0607
18,CCN(CC)CCCC(C)Nc1nc(C)cc(Nc2ccc3nc(C)cc(N)c3c2)n1 (configuration not stated) + C=CCn1c(=O)c2cnc(Nc3ccc(N4CCN(C)CC4)cc3)nc2n1-c1cccc(C(C)(C)O)n1 [MK1775],inactive: 0.768
19,CN1Cc2c(N)cccc2C(c2ccccc2)C1 (configuration not stated) [Nomifensine maleate] + C=CCn1c(=O)c2cnc(Nc3ccc(N4CCN(C)CC4)cc3)nc2n1-c1cccc(C(C)(C)O)n1 [MK1775],inactive: -0.335

row,SMILES,Z' of S-phase gammaH2AX difference (Z-score)
1,CN(C)C/C=C/C(=O)Nc1cc2c(Nc3ccc(F)c(Cl)c3)ncnc2cc1O[C@H]1CCOC1 [Afatinib (BIBW2992)] + C=CCn1c(=O)c2cnc(Nc3ccc(N4CCN(C)CC4)cc3)nc2n1-c1cccc(C(C)(C)O)n1 [MK1775],inactive: 1.26
2,"O=C1NC(=O)C(c2ccccc2)(c2ccccc2)N1 [5,5-Diphenylhydantoin] + C=CCn1c(=O)c2cnc(Nc3ccc(N4CCN(C)CC4)cc3)nc2n1-c1cccc(C(C)(C)O)n1 [MK1775]",inactive: -0.814
3,COc1cccc(C(=O)NCCN2CCN(c3ccc(Cl)cc3)CC2)c1 + C=CCn1c(=O)c2cnc(Nc3ccc(N4CCN(C)CC4)cc3)nc2n1-c1cccc(C(C)(C)O)n1 [MK1775],inactive: -0.184
4,C[C@@H]1C(=O)NC2=Nc3cccc(Cl)c3CN21 [Quazinone] + C=CCn1c(=O)c2cnc(Nc3ccc(N4CCN(C)CC4)cc3)nc2n1-c1cccc(C(C)(C)O)n1 [MK1775],inactive: -0.311
5,CCCCCCCCCCCCC/C=C/[C@@H](O)[C@@H](N)CO [Sphingosine] + C=CCn1c(=O)c2cnc(Nc3ccc(N4CCN(C)CC4)cc3)nc2n1-c1cccc(C(C)(C)O)n1 [MK1775],inactive: -0.162
6,Cc1cc(N)c2ccccc2[n+]1CCCCCCCCCC[n+]1c(C)cc(N)c2ccccc21 [Dequalinium dichloride] + C=CCn1c(=O)c2cnc(Nc3ccc(N4CCN(C)CC4)cc3)nc2n1-c1cccc(C(C)(C)O)n1 [MK1775],inactive: 1.32
7,Nc1c2c(nc3ccccc13)CCCC2O (configuration not stated) [Hydroxytacrine maleate] + C=CCn1c(=O)c2cnc(Nc3ccc(N4CCN(C)CC4)cc3)nc2n1-c1cccc(C(C)(C)O)n1 [MK1775],inactive: -0.172
8,N#CC(C#N)=C(N)/C(C#N)=C/c1cc(O)c(O)c(O)c1 [Tyrphostin 51] + C=CCn1c(=O)c2cnc(Nc3ccc(N4CCN(C)CC4)cc3)nc2n1-c1cccc(C(C)(C)O)n1 [MK1775],inactive: 0.584
9,CCN(CC)CCCCCCCCOC(=O)c1cc(OC)c(OC)c(OC)c1 [TMB-8 hydrochloride] + C=CCn1c(=O)c2cnc(Nc3ccc(N4CCN(C)CC4)cc3)nc2n1-c1cccc(C(C)(C)O)n1 [MK1775],inactive: 0.431
10,NCCNC(=O)c1ccc(Cl)cc1 [Ro 16-6491 hydrochloride] + C=CCn1c(=O)c2cnc(Nc3ccc(N4CCN(C)CC4)cc3)nc2n1-c1cccc(C(C)(C)O)n1 [MK1775],inactive: 0.371
11,Cn1ccc2cc3c(cc21)CCN3C(=O)Nc1cccnc1 + C=CCn1c(=O)c2cnc(Nc3ccc(N4CCN(C)CC4)cc3)nc2n1-c1cccc(C(C)(C)O)n1 [MK1775],inactive: -0.841
12,O=C(O)CP(=O)(O)O [Phosphonoacetic acid] + C=CCn1c(=O)c2cnc(Nc3ccc(N4CCN(C)CC4)cc3)nc2n1-c1cccc(C(C)(C)O)n1 [MK1775],inactive: -0.354
13,"Nc1ccc2c3c(cccc13)C(=O)NC2=O [4-Amino-1,8-naphthalimide] + C=CCn1c(=O)c2cnc(Nc3ccc(N4CCN(C)CC4)cc3)nc2n1-c1cccc(C(C)(C)O)n1 [MK1775]",inactive: 0.468
14,Cn1cc(-c2ccc3nnc(Sc4ccc5ncccc5c4)n3n2)cn1 + C=CCn1c(=O)c2cnc(Nc3ccc(N4CCN(C)CC4)cc3)nc2n1-c1cccc(C(C)(C)O)n1 [MK1775],inactive: 0.14
15,Clc1ccc(Nc2nnc(Cc3ccncc3)c3ccccc23)cc1 [Vatalanib dihydrochloride (PTK787)] + C=CCn1c(=O)c2cnc(Nc3ccc(N4CCN(C)CC4)cc3)nc2n1-c1cccc(C(C)(C)O)n1 [MK1775],inactive: 0.0939
16,Cc1cc(O)c2c(c1)C(=O)c1cc(O)cc(O)c1C2=O [Emodin] + C=CCn1c(=O)c2cnc(Nc3ccc(N4CCN(C)CC4)cc3)nc2n1-c1cccc(C(C)(C)O)n1 [MK1775],inactive: -0.658
17,COC(=O)c1ccc2c(C(=Nc3ccc(N(C)C(=O)CN4CCN(C)CC4)cc3)c3ccccc3)c(O)[nH]c2c1 [BIBF1120 (Vargatef)] + C=CCn1c(=O)c2cnc(Nc3ccc(N4CCN(C)CC4)cc3)nc2n1-c1cccc(C(C)(C)O)n1 [MK1775],inactive: -0.31
18,CN(C)CCCN1c2ccccc2CCc2ccccc21 [Imipramine hydrochloride] + C=CCn1c(=O)c2cnc(Nc3ccc(N4CCN(C)CC4)cc3)nc2n1-c1cccc(C(C)(C)O)n1 [MK1775],inactive: -0.469

# Given tab-delimited: entries from further up.
row	SMILES	Z' of S-phase gammaH2AX difference (Z-score)
8	N#CC(C#N)=C(N)/C(C#N)=C/c1cc(O)c(O)c(O)c1 [Tyrphostin 51] + C=CCn1c(=O)c2cnc(Nc3ccc(N4CCN(C)CC4)cc3)nc2n1-c1cccc(C(C)(C)O)n1 [MK1775]	inactive: 0.584
12	O=C(O)CP(=O)(O)O [Phosphonoacetic acid] + C=CCn1c(=O)c2cnc(Nc3ccc(N4CCN(C)CC4)cc3)nc2n1-c1cccc(C(C)(C)O)n1 [MK1775]	inactive: -0.354
18	CN(C)CCCN1c2ccccc2CCc2ccccc21 [Imipramine hydrochloride] + C=CCn1c(=O)c2cnc(Nc3ccc(N4CCN(C)CC4)cc3)nc2n1-c1cccc(C(C)(C)O)n1 [MK1775]	inactive: -0.469
